Test results: US10220112B2, “Cyclic antimicrobial pseudopeptides and uses thereof” (INSERM (INSTITUT NATIONAL DE LA SANTE ET DE LA RECHERCHE …, priority 2014, dated 2019)
Some results were stated once for a whole list of compounds, not compound by compound. Starred links: 1 amine or outer side, 2 acyl side, 3 side chain; linkers in the order of their positions; H or OH if unused. Non-standard residues stand in square brackets, D forms with d. Residues, ends and D or L forms follow the SMILES beside them. X1 = O=C(CN(CC(O)CO)N[*:1])[*:2]

Tested on: E. coli strain ML-35p
Assay: E. coli outer and inner membrane permeabilization assays (nitrocefin / ONPG)
Assay type: cell-based, Escherichia coli
Conditions: polymixin B 8 μM, peptides 6 μM and 12 μM
Procedure: E. coli outer and inner membrane permeability was determined by using E. coli strain ML-35p, which is lactose permease deficient. Nitrocefin, β-lactam is excluded by the outer cell membrane but, if it can pass this barrier thanks to the action of an AMP, it is then cleaved by the β-lactamase localized within the periplasm. ONPG, passes through lac permease and is cleaved by the cytoplasmic β-galactosidase, however with the ML-35p E. coli strain, ONPG is excluded unless permeabilization is achieved. The permeabilization assays were carried out with 100 μL of bacteria in MH broth at A600 nm 0.1-0.2 (10^7 cfu/mL, density necessary to detect degradation products). […] ONPG was added to a 100 μg/ml final concentration and substrate cleavage was monitored by light absorption measurements at 420 nm. Polymixin B at 8 μM against 10^7 cfu/mL was used as positive control. Bacterial suspension in MH broth plus substrates was used as negative control (untreated cells).

`N=C(N)NCCC[C@@H]1NC(=O)[C@H](Cc2c[nH]c3ccccc23)NC(=O)[C@H](Cc2ccccc2)NC(=O)[C@H](Cc2ccccc2)NC(=O)[C@H](CCCCN)NC(=O)CN(CC(O)CO)NC(=O)[C@H](CCCNC(=N)N)NC1=O` (stereo partly shown) [Pep11, (FFWRRΨHytK)] (cyclo(FFWRR[X1]K)) was tested, and the “time to detection of the reporter, inner membrane” value was 35 to 40 min.
